# From PubChem BioAssay AID504444 (National Center for Advancing Translational Sciences (NCATS), 2011)
# About 7,500 (2.1%) of roughly 360,000 compounds were called active. Inconclusive results, whose numbers are uncertain, are shown with a selection of clear calls. Calls come from the whole dose curve; as a rule, active = well fitted inhibition curve with a large enough effect; inconclusive = small, poorly fitted or top-dose-only effect, or effect the other way; inactive = flat fitted curve, though single readings scatter. A potency beside an inconclusive call is a rough fit, not a confirmed value.
# Test: Nrf2 qHTS screen for inhibitors; note: nearly all actives have a fitted effect of over 60% in size
# Settings: A549 ARE-Fluc reporter, luciferase luminescence, 18-24 h; activity change, negative = inhibition: at 46 µM (top of the series)
# Method in brief: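 A549 ARE_Fluc cells, 5000/well, 5% FBS OPTI-MEM; compounds in dose-response, 18-24 h at 37 °C/5% CO2; CellTiter-Fluor viability read (Ex 405/Em 525), then BugLite luciferase luminescence = Nrf2 activity.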
# % is set by controls: 0 for no effect and ±100 for the full control effect; potency is the fitted concentration of half-maximal effect.
Compound,Potency,"activity change, negative = inhibition"
CN1CC(c2ccccc2)C2(COc3ccccc3C2=O)C12C(=O)Nc1ccccc12 (stereo not drawn),"inconclusive: 29.1 µM [falling, single point]",
Cc1ccc(C(=O)CSC2=C(C#N)C(c3ccco3)C3=C(CCCC3=O)N2)cc1 (stereo not drawn),"inconclusive: 8.2 µM [falling, partial curve, poor fit]",
O=C(NC(c1ccc(Cl)cc1)c1c(O)ccc2ccccc12)c1ccccc1 (stereo not drawn),active: 11.6 µM,
COc1ccc(-c2cc(C(F)(F)F)n3nc(C(=O)NCC45CC6CC(CC(C6)C4)C5)cc3n2)cc1,active: 14.6 µM,
O=C(CN1C(=O)COc2ccc(S(=O)(=O)N3CCOCC3)cc21)N1CCN(c2ccccc2)CC1,,inactive: 16.3%
Cc1c(C(=O)OC2CCCC2)[nH]c2c1C(=O)CC(c1ccco1)C2 (stereo not drawn),"inconclusive: 29.1 µM [falling, single point]",
CCC(=O)N1CCc2cc(S(=O)(=O)CCC(=O)Nc3ccc(C)c(F)c3)ccc21,"inconclusive: 32.6 µM [falling, single point]",
Cn1c(O)c(N=NC(=O)c2cc(-c3cccs3)nc3ccccc23)c2ccccc21,"inconclusive: 10.3 µM [falling, partial curve, poor fit]",
CC1CCCCN1CCCNC(=O)c1ccc2nc(N3CCCCC3)sc2c1 (stereo not drawn),"inconclusive: 2.91 µM [activator, partial curve]",
Cc1cc(NC(=O)C23CC4CC(C2)CC(n2cnc([N+](=O)[O-])n2)(C4)C3)no1,,inactive: 12.6%
CCn1ccnc1CN(C)Cc1nc(-c2ccccc2)no1,"inconclusive: 23.1 µM [activator, partial curve, poor fit]",
COc1ccc(OCC(=O)N/N=C(\CCC(=O)O)c2cccs2)cc1,"inconclusive: 1.84 µM [activator, full curve]",
COc1ccc(NS(=O)(=O)c2cccc(NC(=O)CNC(C)=O)c2)cc1,"inconclusive: 0.092 µM [falling, partial curve, poor fit]",
O=C(Cc1ccc(F)cc1)NCCS(=O)(=O)N1CCN(c2ccccc2)CC1,"inconclusive: 13 µM [falling, partial curve, poor fit]",
CC(C)(CO)C(O)C(=O)NCCC#N (stereo not drawn),,inactive: 10.9%
COC(=O)c1ccccc1NC(=O)C1CCN(S(=O)(=O)c2cc(OC)ccc2OC)CC1,"inconclusive: 1.46 µM [falling, partial curve, poor fit]",
Cc1cc(C)n2nc(-c3ccc(Br)cc3)cc2n1,"inconclusive: 2.31 µM [activator, single point]",
O=C(CN1C(=O)NC(c2ccccc2)(c2ccccc2)C1=O)NC1CCCCC1,,inactive: -2.33%

# Rewritten as tab-separated lines: entries from further up.
Compound	Potency	activity change, negative = inhibition
COc1ccc(OCC(=O)N/N=C(\CCC(=O)O)c2cccs2)cc1	inconclusive: 1.84 µM [activator, full curve]	
COc1ccc(NS(=O)(=O)c2cccc(NC(=O)CNC(C)=O)c2)cc1	inconclusive: 0.092 µM [falling, partial curve, poor fit]	
